Data taken from paper PMC6212790, “How bacterial xenogeneic silencer rok distinguishes foreign from self DNA in its resident genome” (Nucleic Acids Research, 2018).
Where a chain is given by its changes, count along the chain named. The comparison behind a weaker result is the experiment's own reference, which may not be listed here. Tags and fusion partners may be left off the protein sequences shown.

Assays:
[1] = target: T1, Rok-C114-185 R174A (Bacillus subtilis subsp. subtilis str. 168) (UniProt O34857); assay: NMR HSQC; details: NMR samples: 50 mM sodium phosphate, 50 mM NaCl, pH 6.0; recombinant protein; residues 114-185; protein details: C-terminal His6
T1 sequence (looked up): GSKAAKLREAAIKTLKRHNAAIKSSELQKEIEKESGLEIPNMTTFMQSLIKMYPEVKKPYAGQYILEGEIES

[2] = target: T2, Rok-C114-185 K171A (Bacillus subtilis subsp. subtilis str. 168) (UniProt O34857); assay: NMR HSQC; details: NMR samples: 50 mM sodium phosphate, 50 mM NaCl, pH 6.0; recombinant protein; residues 114-185; protein details: C-terminal His6
T2 sequence (looked up): T1 sequence (looked up) with K58A, A61R

[3] = target: T3, Rok-C114-185 T156A (Bacillus subtilis subsp. subtilis str. 168) (UniProt O34857); assay: NMR HSQC; details: NMR samples: 50 mM sodium phosphate, 50 mM NaCl, pH 6.0; recombinant protein; residues 114-185; protein details: C-terminal His6
T3 sequence (looked up): T1 sequence (looked up) with T43A, A61R

[4] = target: T4, Rok-C114-185 N154D (Bacillus subtilis subsp. subtilis str. 168) (UniProt O34857); assay: ITC; details: ITC: sodium phosphate buffer, 200 mM NaCl, pH 6, 277 K, 50 uM protein in cell titrated with 750 uM Seq1 DNA; recombinant protein; residues 114-185; protein details: C-terminal His6
T4 sequence (looked up): T1 sequence (looked up) with N41D, A61R

Measured: binding result

CTAATAACTAGTTATTAG (double strand) [Seq1]
binds more weakly: all assays above
